Laboratory results: PubChem BioAssay AID1259405 (NCATS, 2018)

Purpose: 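Silenced genes that increase secreted GFP made by CHO cells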 (primary screen)
Cells: Chinese hamster CHO-K1 ovary cells with stable secreted eGFP expression
Knock-down reagent: single siRNA against mouse genes, 0.8 pmol siRNA per well (2 µl of 400 nM stock)
Time to read-out: 3 days
Measured: 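Percent of the per-plate non-targeting control median for intracellular GFP per well by laser scanning cytometry and for cell viability by ATP luminescence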
Reading the numbers: GFP, % of control: higher = more GFP per well, higher productivity; viability (ATP), % of control: higher = more viable cells (more ATP)
Active means: 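Called active when intracellular GFP, relative to negative control, is at or above 120%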
Shown is a random part of about 50,000 deposited reagents. About 4,000 of all reagents (8%) count as active. 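Mouse siRNA library applied to hamster cells; one well for each siRNA.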 A number with no mark means an inactive call. The numbers tell different reagents against one gene apart.

Depletion of Csdc2 (GeneID 105859) #1 came out at: GFP, % of control 74.4; viability (ATP), % of control 87.3. Silencing of Csdc2 (GeneID 105859) #2 gave: GFP, % of control 69.7; viability (ATP), % of control 73.2. Against Csdc2 (GeneID 105859) #3, the values are GFP, % of control 61; viability (ATP), % of control 94.4. For Pkn2 (GeneID 109333) #1 the deposit lists GFP, % of control 54.8; viability (ATP), % of control 59. Depletion of Pkn2 (GeneID 109333) #2 resulted in: GFP, % of control 64.1; viability (ATP), % of control 50. Pkn2 (GeneID 109333) #3 showed GFP, % of control 73.9; viability (ATP), % of control 73.5.

Depletion of Pmf1 (GeneID 67037) #1 resulted in: GFP, % of control 75.9; viability (ATP), % of control 61.3. With knock-down of Pmf1 (GeneID 67037) #2 the results were GFP, % of control 77; viability (ATP), % of control 61.2. After knock-down of Pmf1 (GeneID 67037) #3, the screen gave GFP, % of control 46.5; viability (ATP), % of control 78.2. Dcph1 (GeneID 73419) #1 gave GFP, % of control 89.3; viability (ATP), % of control 71.5. Dcph1 (GeneID 73419) #2 gave GFP, % of control 57; viability (ATP), % of control 75.1. With knock-down of Dcph1 (GeneID 73419) #3 the results were GFP, % of control 71.4; viability (ATP), % of control 56.

Acsbg1 (GeneID 94180) #1 showed GFP, % of control 90.5; viability (ATP), % of control 47.9. Acsbg1 (GeneID 94180) #2 scored GFP, % of control 73.5; viability (ATP), % of control 80.1. With knock-down of Acsbg1 (GeneID 94180) #3, the record shows GFP, % of control 59.3; viability (ATP), % of control 59.1.

Laid out differently: entries from further up
gene symbol	reagent	GFP, % of control	viability (ATP), % of control
Csdc2 (GeneID 105859)	1	74.4	87.3
Csdc2 (GeneID 105859)	2	69.7	73.2
Csdc2 (GeneID 105859)	3	61	94.4
Pkn2 (GeneID 109333)	1	54.8	59

The list goes on:
Rbfox3 (GeneID 52897) #1 scored GFP, % of control 106; viability (ATP), % of control 99.9. Knock-down of Rbfox3 (GeneID 52897) #2 resulted in: GFP, % of control 80.6; viability (ATP), % of control 93.1. With knock-down of Rbfox3 (GeneID 52897) #3 the results were GFP, % of control 40.9; viability (ATP), % of control 61.4. Prdm15 (GeneID 114604) #1 gave GFP, % of control 140 (active); viability (ATP), % of control 112. With knock-down of Prdm15 (GeneID 114604) #2, the record shows GFP, % of control 40.7; viability (ATP), % of control 45.8. Prdm15 (GeneID 114604) #3 showed GFP, % of control 79; viability (ATP), % of control 101.

After knock-down of D130079A08Rik (GeneID 320671) #1, the screen gave GFP, % of control 76.9; viability (ATP), % of control 100. D130079A08Rik (GeneID 320671) #2 scored GFP, % of control 94.7; viability (ATP), % of control 80.2. With knock-down of D130079A08Rik (GeneID 320671) #3 the results were GFP, % of control 72; viability (ATP), % of control 72.7. With knock-down of Sqstm1 (GeneID 18412) #1 the results were GFP, % of control 28.2; viability (ATP), % of control 36.9. With knock-down of Sqstm1 (GeneID 18412) #2, the record shows GFP, % of control 83.8; viability (ATP), % of control 89.9. Sqstm1 (GeneID 18412) #3 scored GFP, % of control 107; viability (ATP), % of control 147.

Against Epha1 (GeneID 13835) the deposit lists GFP, % of control 70; viability (ATP), % of control 91.8. Knock-down of Arhgdib (GeneID 11857) #1 came out at: GFP, % of control 117; viability (ATP), % of control 94.8. Arhgdib (GeneID 11857) #2 scored GFP, % of control 69.5; viability (ATP), % of control 53.7. After knock-down of Arhgdib (GeneID 11857) #3 the results were GFP, % of control 141 (active); viability (ATP), % of control 116. With knock-down of Mill1 (GeneID 266815) #1, the record shows GFP, % of control 58.3; viability (ATP), % of control 70.6. Mill1 (GeneID 266815) #2 scored GFP, % of control 40.3; viability (ATP), % of control 72.4.

Silencing of Mill1 (GeneID 266815) #3 came out at: GFP, % of control 46.6; viability (ATP), % of control 64.6. Rims1 (GeneID 116837) #1 scored GFP, % of control 65.6; viability (ATP), % of control 44.8. Rims1 (GeneID 116837) #2 scored GFP, % of control 73.1; viability (ATP), % of control 85.5. For Rims1 (GeneID 116837) #3 the deposit lists GFP, % of control 37.3; viability (ATP), % of control 49.1. Against Eif3l (GeneID 223691) #1 the deposit lists GFP, % of control 80.3; viability (ATP), % of control 88.5. Eif3l (GeneID 223691) #2 showed GFP, % of control 81.1; viability (ATP), % of control 58.1.

Depletion of Eif3l (GeneID 223691) #3 resulted in: GFP, % of control 168 (active); viability (ATP), % of control 78.9.
